Assay results from PMC8216277.
These are yes or no findings as the source states them, for the method shown. Some binding calls cover weakened binding; strength is not graded here.

By UniProt entry, the sequences of proteins in these tests, tags left out.
UniProt P62304: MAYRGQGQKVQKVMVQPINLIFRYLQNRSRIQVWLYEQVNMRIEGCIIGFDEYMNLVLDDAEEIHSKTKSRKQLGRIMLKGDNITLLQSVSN
UniProt P62308: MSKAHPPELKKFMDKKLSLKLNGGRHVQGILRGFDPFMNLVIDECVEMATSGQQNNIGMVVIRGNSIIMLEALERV

Molecular target: Sm E (UniProt P62304)
Test: production and purification as a complex; Sm proteins produced in bacteria as heterodimers or trimer (six cultures for ten proteins), purified by chromatography; details in the supplementary materials

In the case of Sm G (from UniProt P62308 1-76), the binding is reported as “binds”.
